The other results are listed elsewhere or left out.
test system: T1, CTL2-GFP (C. trachomatis L2/434/Bu, GFP-expressing); parameters: species or system HeLa; Intracellular C. trachomatis growth in HeLa cells, bulk GFP fluorescence relative to DMSO; details: bulk GFP, single well; 28.5 h, 10 µM; inhibitor
T1 construct: L2/434/Bu, GFP-expressing

SMILES	% of control remaining [%]
COC(=O)c1sccc1NC(=O)c1ccccc1Cl [CBK066860]	145.382
Cc1cc(NC(=O)CS(=O)(=O)c2cccc(C(F)(F)F)c2)on1 [CBK306015]	127.654
CCn1c(N2CCCC(C(=O)NC3CC3)C2)nc2ccccc21 (centres unmarked) [CBK282419]	143.335
O=C(Nc1cc(NC(=O)C2C3C=CC(C3)C2C(=O)O)ccc1Cl)c1cccs1 (centres unmarked) [CBK263959]	116.851
COC(=O)c1ccc(N2C(=O)CC(SCCc3nc4ccccc4[nH]3)C2=O)cc1 (centres unmarked) [CBK267188]	179.54
COc1ccc2[nH]c3c(c2c1)CCN(C=O)C31CCCN(CCC#N)C1 (centres unmarked) [CBK039445]	128.071
O=S(=O)(NC[C@H]1C[C@@H]2CC[N@]1C[C@@H]2CN1CCOCC1)c1ccc(Cl)cc1 [CBK288762]	137.69
O=C(O)C1CC1C(=O)N1CC2(CCCC2)c2c(F)cccc21 (centres unmarked) [CBK306360]	104.567
Cc1ccc(Oc2ccc([N+](=O)[O-])cc2)c(Br)c1 [CBK002832]	125.403
Cc1cc(/C=C\c2nc(O)c([N+](=O)[O-])c(=O)[nH]2)c(C)n1-c1ccc(C(=O)O)cc1 [CBK267334]	195.829
CCCC/C=C/c1cncc(N2CCN(c3ccccn3)CC2)n1 [CBK037276]	71.3925
O=C(O)c1ccc(N2CCN(CCO)CC2)c([N+](=O)[O-])c1 [CBK264911C]	137.113
Cc1ccc(C2=CCN(CC(=O)Nc3ncc(C)s3)CC2)o1 [CBK283383]	135.899
Cc1cc(NC(=O)C2COc3ccccc3O2)c2ccccc2n1 (centres unmarked) [CBK115871]	100.58
C=Cn1ncc(CN2CCC3(O)CCCCC3C2)c1C (centres unmarked) [CBK283302]	141.044
COc1cccc(N2CCN(c3cc4n[nH]c(=O)n4cn3)CC2)c1 [CBK300511]	152.487
CCCn1ncc(CN2CCC3(CC2)CC(C(=O)O)N(C(C)=O)C3)c1C (centres unmarked) [CBK306612]	93.5437
O=C(Nc1cnc(-c2cccc(OC(F)(F)F)c2)c(-c2cccnc2)n1)c1ccccn1 [CBK036837]	152.269
CC(C)(C)C(=O)N[C@H]1C[C@@H](Cc2cc(CN3CCOCC3)on2)C1(C)C [CBK289247]	152.994
CCC(CN1CCOCC1)n1cncc1-c1[nH]c2ccccc2c1C (centres unmarked) [CBK281800]	112.503
CN1C(=O)C(CC(=O)NCCCc2ccc(F)cc2)c2ccccc21 (centres unmarked) [CBK282474]	94.5204
c1cc(-c2ccc(Nc3ccc(N4CCOCC4)cc3)nc2)cs1 [CBK036844]	193.756
O=C(COC(=O)c1ccc2c(c1)C(=O)N(c1cccc(Cl)c1)C2=O)c1ccc(Br)cc1 [CBK262324]	109.361
c1ccc(-c2nnc(CSc3nnc(-c4ccncc4)[nH]3)o2)cc1 [CBK269962]	159.202
O=C1CC(N2CCN(Cc3ccc4c(c3)OCO4)CC2)C(=O)N1c1ccc(Br)cc1 (centres unmarked) [CBK074544]	123.003

Structural class: those above containing a nitro group on carbon
SMILES	% of control remaining [%]
Cc1ccc(Oc2ccc([N+](=O)[O-])cc2)c(Br)c1 [CBK002832]	125.403
Cc1cc(/C=C\c2nc(O)c([N+](=O)[O-])c(=O)[nH]2)c(C)n1-c1ccc(C(=O)O)cc1 [CBK267334]	195.829
O=C(O)c1ccc(N2CCN(CCO)CC2)c([N+](=O)[O-])c1 [CBK264911C]	137.113

(further entries)

SMILES	% of control remaining [%]
CCOc1ccc(NC(=O)COc2ccccc2/C=C/C(=O)O)cc1 [CBK286935]	130.523
Cc1ccc(Cl)cc1Nc1nc2nc(C)c(NCC3CC3)cn2n1 [CBK008522]	121.624
COc1cc(/C=N/n2c(S)nnc2-c2cccnc2)ccc1OCc1ccccc1 [CBK265307]	114.997
CC(=O)NC(c1ccccn1)C1CCCN(C(=O)C2CCCCC2)C1 (centres unmarked) [CBK285031]	108.251
COc1cc(NC(=O)c2ccc3c(c2)C(=O)N(Cc2ccccc2)C3=O)c(C(=O)O)cc1OC [CBK266544]	164.791
COc1ccc(CCN2CCC(Oc3nccnc3NS(C)(=O)=O)CC2)cc1OC [CBK084285]	101.476
COc1cccc(C2CC(c3cccc(Cl)c3)n3nc(N)nc3N2)c1 (centres unmarked) [CBK293966]	132.339
Cc1cc(C(F)F)nn1CC(=O)N1CCc2ncc(Cl)cc2C1 [CBK284853]	70.6207
CN(C)c1ccccc1-c1cc(NCCc2ccccn2)ncn1 [CBK037189]	117.803
O=C(NCc1ccc(Cl)cc1)N1CCN(c2ccccc2)CC1 [CBK155193]	202.743
CS(=O)(=O)c1sc(C(=O)O)c2c1C=CCC2 [CBK005513]	118.29
Oc1cc(C(F)(F)F)nc(N2CCc3ccccc3C2)n1 [CBK000344]	92.5702
COc1ccc(/C=N\N(C)c2nc(-c3ccccc3)cc(-c3ccc(Br)cc3)n2)cc1OC [CBK261799]	125.039
Cc1coc(C)c1C(=O)CC1(O)C(=O)N(CCCC#N)c2ccccc21 (centres unmarked) [CBK307383]	135.01
c1ccc(NCCOc2nccnc2N2CCCC2)cc1 [CBK115814]	93.3616
Cc1ccc(C(=O)NC(=S)Nc2cccc(NC(=O)c3ccccc3C)c2)cc1 [CBK264049]	119.022
CCCCn1cnc2c(c1=O)c1nc3ccccc3nc1n2CCc1ccc(OC)cc1 [CBK269538]	135.667
COC(=O)c1ccc(S(N)(=O)=O)o1 [CBK113186]	100.994
Nc1ccc(-n2c(-c3ccccc3)c3c(c2-c2ccc(Cl)cc2)C(=O)c2ccccc2C3=O)cc1 [CBK262695]	100
COc1ccccc1C(=O)N1CCC[C@@H](N)[C@@H]1c1ccccc1F [CBK283458]	139.229
O=C1CC(c2cc(Br)ccc2F)c2scc(-c3ccccc3F)c2N1 (centres unmarked) [CBK294440]	188.783
CCCN1CCC2CN(CCCC(=O)c3ccc(F)cc3)CCN2C1=O (centres unmarked) [CBK024882C]	91.3421
O=C1CN(C(=O)NCc2ccc(F)cc2)CCN1 [CBK155869]	100
O=C(CCn1ccc2ccncc21)NCCc1c[nH]c2ccccc12 [CBK284760]	88.5237
O=S(=O)(c1cccc(C(F)(F)F)c1)N1CCN(Cc2ccc3c(c2)OCO3)CC1 [CBK074594]	103.453
